From patent US20230149516A1, “USE OF PEPTIDYLGLYCINE ALPHA-AMIDATING MONOOXYGENASE (PAM) FOR THERAPEUTIC PURPOSE” (PAM THERAGNOSITICS GMBH, priority 2020, published 2023)
At least one read-out could not be matched to a standard name with certainty.

Experiment: In vivo half-life of PAM in rats (AMA in plasma, one phase decay fit)
Details: 17 μg single dose, two rats, Li-Heparin plasma AMA

B1: recombinant human PAM: Recombinant human peptidylglycine alpha-amidating monooxygenase, aa 21-834, SEQ ID No. 10 (Example 1); Example 10 used endotoxin-free recombinant PAM from SinoBiological (protein, listed as Homo sapiens)
chain: SPLSVFKRFKETTRPFSNECLGTTRPVVPIDSSDFALDIRMPGVTPKQSDTYFCMSMRIPVDEEAFVIDFKPRASMDTVHHMLLFGCNMPSSTGSYWFCDEGTCTDKANILYAWARNAPPTRLPKGVGFRVGGETGSKYFVLQVHYGDISAFRDNNKDCSGVSLHLTRLPQPLIAGMYLMMSVDTVIPAGEKVVNSDISCHYKNYPMHVFAYRVHTHHLGKVVSGYRVRNGQWTLIGRQSPQLPQAFYPVGHPVDVSFGDLLAARCVFTGEGRTEATHIGGTSSDEMCNLYIMYYMEAKHAVSFMTCTQNVAPDMFRTIPPEANIPIPVKSDMVMMHEHHKETEYKDKIPLLQQPKREEEEVLDQGDFYSLLSKLLGEREDVVHVHKYNPTEKAESESDLVAEIANVVQKKDLGRSDAREGAEHERGNAILVRDRIHKFHRLVSTLRPPESRVFSLQQPPPGEGTWEPEHTGDFHMEEALDWPGVYLLPGQVSGVALDPKNNLVIFHRGDHVWDGNSFDSKFVYQQIGLGPIEEDTILVIDPNNAAVLQSSGKNLFYLPHGLSIDKDGNYWVTDVALHQVFKLDPNNKEGPVLILGRSMQPGSDQNHFCQPTDVAVDPGTGAIYVSDGYCNSRIVQFSPSGKFITQWGEESSGSSPLPGQFTVPHSLALVPLLGQLCVADRENGRIQCFKTDTKEFVREIKHSSFGRNVFAISYIPGLLFAVNGKPHFGDQEPVQGFVMNFSNGEIIDIFKPVRKHFDMPHDIVASEDGTVYIGDAHTNTVWKFTLTEKLEHRSVKKAGIEVQEIKEAEAVVGS
- half-life of the PAM enzyme: 47 min
